Measurements as given in PubChem BioAssay AID493014 (National Center for Advancing Translational Sciences (NCATS), 2011).
The list shows a part of the results. These are further read-outs of the screen, such as a control signal, another cell line or another target. No call is given for them. The list favours compounds with an active or inconclusive main result. Potencies come from curve fits of mixed quality, noted in brackets.

Assay: qHTS Assay to Find Inhibitors of Chronic Active B-Cell Receptor Signaling
Conditions: ABC-DLBCL IkBa-CBG/CBR reporter, luminescence ratio (green luciferase fused to IkBa over red control in TMD8 lymphoma cells), 4 h
Method in brief: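 TMD8 human ABC-DLBCL cells with doxycycline-inducible IκBα–green luciferase fusion and unfused red luciferase, in 0.5% FBS medium; compounds up to 46 uM, 4 h at 37C. Green/red luminescence ratio, filter-overlap corrected, fitted to concentration-response curves.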

[1] = measured here: CBR red luminescence, cell number
[2] = measured here: IkBa-CBG green luminescence

SMILES | AC50 [1] | AC50 [2]
CCc1nnc(NC(=O)CSc2nc3c(c(=O)n2CC)SC(C)C3)s1 (stereo unspecified) | 32.6 µM [falling, single point] | 
Cc1ccc2cc(CCNC(=O)c3cccc([N+](=O)[O-])c3)c(=O)[nH]c2c1 | 35.5 µM [falling, partial curve, poor fit] | 
Cc1cccc(C(=O)NNC(=O)c2ccccc2C)c1 | 14.1 µM [falling, partial curve, poor fit] | 
Cc1sc2nc(CN(Cc3cccs3)C(=O)NC3CCCCC3)[nH]c(=O)c2c1C | 7.08 µM [falling, partial curve] | 
O=C(CN1C(=O)NC(c2ccccc2)(c2ccccc2)C1=O)NCC(=O)Nc1ccc(F)cc1 | 9.2 µM [rising, partial curve, poor fit] | 
COc1ccc(CCNC(=O)c2coc3ccccc3c2=O)cc1OC | 3.98 µM [falling, partial curve, poor fit] | 
Cc1ccc(C)c(N2CCN(C(=O)CCCCCn3c(=S)[nH]c4ccc(N5CCOCC5)cc4c3=O)CC2)c1 | 7.94 µM [falling, partial curve, poor fit] | 
COc1cc(-c2noc(CCCC(=O)Nc3ccc(C(N)=O)cc3)n2)cc(OC)c1OC |  | 12.6 µM [falling, partial curve, poor fit]
CCOC(=O)Cn1c(=O)n(CC(=O)OCC)c2ccccc21 | 1.84 µM [rising, partial curve, poor fit] | 
Fc1ccc2cc(-c3cccnc3)ncc2c1 | 32.6 µM [rising, partial curve, poor fit] | 
CCCCCCn1nc(C(=O)Nc2nc3c(s2)CCCC3)c2ccccc2c1=O | 1.3 µM [rising, full curve] | 
Cc1cc(S(=O)(=O)N2CCN(CC(=O)N(C)Cc3ccccc3)CC2)ccc1Br | 20.6 µM [falling, partial curve] | 
O=C(COC(=O)COc1cc(Cl)c(Cl)cc1Cl)NC1CC1 | 23.1 µM [rising, partial curve, poor fit] | 
Cc1ccc(C)c(S(=O)(=O)N(C(=O)c2ccncc2)c2ccc(OC(=O)c3ccncc3)cc2)c1 | 8.91 µM [falling, partial curve, poor fit] | 
CCCN1CCn2c3c(c4cc(Br)ccc42)CCCC31 (stereo unspecified) | 35.5 µM [rising, partial curve, poor fit] | 
C=CCOC(=O)C1=C(C)NC(=O)NC1c1cc(Cl)cc(Cl)c1OC (stereo unspecified) | 22.4 µM [falling, partial curve, poor fit] | 
CN(C)S(=O)(=O)c1ccc(Cl)c(NC(=O)COC(=O)c2ccc(O)cc2)c1 | 35.5 µM [falling, single point] | 15.8 µM [rising, partial curve, poor fit]
Cc1ccc(OC(C)C(=O)Nc2ccc3c(c2)n(C)c(=O)n3C)c(C)c1 (stereo unspecified) | 11.2 µM [rising, partial curve] | 12.6 µM [falling, partial curve, poor fit]
Fc1ccccc1-n1c(-c2ccc3ccccc3n2)n[nH]c1=S | 2.82 µM [falling, full curve, poor fit] | 
CC[C@@H](C)[C@H](N)C(=O)NC[C@H]1O[C@@H](n2cnc3c(N)ncnc32)[C@H](O)[C@@H]1O | 16.4 µM [rising, partial curve, poor fit] | 

SMILES | AC50 [1] | AC50 [2]
CCC(C)NC(=O)CNC(=O)Cn1c(C)cc2ccccc2c1=O (stereo unspecified) | 2.31 µM [rising, partial curve, poor fit] | 
C[C@@H](CSc1ccc(Br)cc1)CN1CC[C@H](NC(=O)OCc2ccccc2)CCC1=O | 29.1 µM [falling, single point] | 
O=C(NC(=S)N1CCN(c2nc(-c3ccccc3)cs2)CC1)c1cncc(Br)c1 | 12.6 µM [rising, partial curve, poor fit] | 25.1 µM [falling, single point]
Cc1c(Oc2ccc(C(F)(F)F)cc2[N+](=O)[O-])ccc2c3c(c(=O)oc12)CCC3 | 0.0651 µM [rising, full curve] | 
CC(=O)N(/N=C1\Sc2ccccc2C1=O)c1ccccc1C | 1.12 µM [falling, full curve] | 
O=C(c1ccc(Oc2ccc([N+](=O)[O-])cc2)cc1)N1CCCCCC1 | 14.1 µM [falling, partial curve, poor fit] | 
O=C(Nc1nc(-c2ccc(S(=O)(=O)N3CCOCC3)cc2)cs1)c1ccccc1 | 3.16 µM [falling, partial curve, poor fit] | 
OCCN1CCN(C(=S)c2ccc(Cl)c(Cl)c2)CC1 | 25.9 µM [falling, single point] | 
Cc1ccc2c(COC(=O)c3ccccc3F)cc(=O)oc2c1 | 0.224 µM [rising, full curve] | 
Cc1ccc(Nc2nnc(SC(C)C(=O)Nc3c(C)n(C)n(-c4ccccc4)c3=O)s2)cc1 (stereo unspecified) | 1.16 µM [falling, full curve] | 
CCCCC(=O)Nc1ccc(NC(=O)C2CC2)cn1 | 1.41 µM [rising, full curve, poor fit] | 
CC(C)(C)c1ccc(/C=N/NC(=O)c2ccccn2)cc1 | 11.2 µM [falling, partial curve, poor fit] | 
CCNC(=O)NC(=O)C(C)OC(=O)CCCSc1nc2ccccc2s1 (stereo unspecified) | 8.2 µM [falling, partial curve] | 0.103 µM [rising, partial curve, poor fit]
CC(C)N(Cc1nc(-c2ccccc2)no1)C(=O)COc1ccccc1 | 2.91 µM [rising, full curve, poor fit] | 
O=C(Nc1ccn(Cc2ccccc2)n1)c1ccc2c(c1)OCO2 | 10 µM [falling, partial curve, poor fit] | 
CCOc1ccc(Oc2ccc(-c3nnc(-c4ccccc4)o3)cc2[N+](=O)[O-])cc1 | 10 µM [falling, partial curve] | 
Cn1c(SCC(=O)c2ccc3c(c2)OCCO3)nnc1C1CC1 | 29.1 µM [falling, single point] | 
Cc1cccc(NC(=O)c2ccc3c(=O)n(CC4CCCO4)c(=S)[nH]c3c2)c1 (stereo unspecified) | 12.6 µM [falling, single point] | 
Cc1ccc(NC(=O)c2cccc(S(=O)(=O)N3CCCCC3)c2)cc1 | 7.94 µM [falling, partial curve, poor fit] | 
CC(C)N1C(=O)S/C(=C/c2ccc3c(c2)n(C)c(=O)n3C)C1=O | 0.282 µM [rising, full curve, poor fit] | 

Reformatted field by field: entries from further up
CCC(C)NC(=O)CNC(=O)Cn1c(C)cc2ccccc2c1=O (stereo unspecified)
  AC50 [1]: 2.31 µM [rising, partial curve, poor fit]
CC(=O)N(/N=C1\Sc2ccccc2C1=O)c1ccccc1C
  AC50 [1]: 1.12 µM [falling, full curve]
O=C(Nc1nc(-c2ccc(S(=O)(=O)N3CCOCC3)cc2)cs1)c1ccccc1
  AC50 [1]: 3.16 µM [falling, partial curve, poor fit]
Cc1ccc2c(COC(=O)c3ccccc3F)cc(=O)oc2c1
  AC50 [1]: 0.224 µM [rising, full curve]

Continuation:

SMILES | AC50 [1] | AC50 [2]
CC1CCN(C(=O)CNC(=O)Cc2ccccc2)CC1 | 35.5 µM [falling, single point] | 
COc1ccc(-n2[nH]c(C)cc2=O)cc1 | 3.55 µM [rising, partial curve, poor fit] | 
NC(=O)c1ccsc1NC(=O)CSc1ccccc1F | 11.6 µM [falling, partial curve, poor fit] | 
COc1ccc(N2CCN(C(CNC(=O)C(C)(C)C)c3ccco3)CC2)cc1 (stereo unspecified) | 3.98 µM [falling, full curve, poor fit] | 
COc1ccc(C(=O)NNC(=O)C2(C)CC2(Br)Br)cc1 (stereo unspecified) | 3.98 µM [falling, partial curve, poor fit] | 
CC1=NN(C(=O)c2ccccc2F)C(O)(c2ccc(Cl)cc2)C1 (stereo unspecified) | 8.91 µM [falling, partial curve, poor fit] | 
CCCn1c(-c2ccc(F)cc2)n[nH]c1=S | 10 µM [falling, partial curve, poor fit] | 35.5 µM [falling, single point]
O=C1N/C(=C/c2ccc(N3CCOCC3)o2)C(=O)N1c1cccc(Cl)c1 | 11.2 µM [falling, partial curve] | 3.16 µM [falling, partial curve, poor fit]
CCN(CC)c1ccc(/C=N/Nc2nc(C)cc(C)n2)c(O)c1 | 29.1 µM [falling, single point] | 
COc1ccc(C(=O)C2CCCN(C(=O)c3cc4nc(C)cc(C)n4n3)C2)cc1F (stereo unspecified) | 31.6 µM [rising, single point] | 
COc1ccc(NC(=O)CN(C)C(=O)c2cn(-c3ccccc3)nc2-c2ccc(OC)cc2)cc1 | 9.2 µM [rising, partial curve] | 
O=C(NCc1ccc2c(c1)OCO2)c1nc(S(=O)(=O)Cc2ccccc2)ncc1Cl | 15.8 µM [falling, single point] | 
O=C(Nc1ccc(F)cc1)c1oc2ccccc2c1NC(=O)C1CCCC1 | 1 µM [falling, partial curve, poor fit] | 
COc1ccc(CCNC(=O)C(=O)NCC2CCCO2)cc1 (stereo unspecified) | 2.06 µM [rising, partial curve, poor fit] | 
CCNc1nc(NC(C)C)nc(N(C#N)CCOc2ccccc2)n1 | 29.1 µM [falling, single point] | 
CCOC(=O)C1=C(C)C(c2ccc(OC)cc2OC)NC(=O)N1 (stereo unspecified) | 1.3 µM [rising, full curve, poor fit] | 
CC1Sc2ccc(S(=O)(=O)N3CCN(c4cccc(Cl)c4)CC3)cc2NC1=O (stereo unspecified) | 11.2 µM [falling, partial curve] | 
S=C(N=Nc1ccccc1)NNc1ccccc1 | 23.1 µM [rising, single point] | 
O=C(CCl)NC(=O)NC12CC3CC(CC(C3)C1)C2 | 6.51 µM [falling, partial curve] | 
Cc1c(N=Cc2c(O)n(C3CCCCC3)c(=O)[nH]c2=O)c(=O)n(-c2ccccc2)n1C | 1.12 µM [rising, full curve, poor fit] | 
